This test has as its target native RodZ in the cell lysate of S. sonnei MS390 (S. sonnei (endogenous in MS390)) (UniProt Q3YZ36). Briefly: SEC; soluble lysate of S. sonnei MS390 (micrococcal nuclease treated) on Superdex 200 PC3.2/30 in RNA binding buffer with 0.1% Tween 20 and 0.1% Triton X-100; fractions immunoblotted for RodZ and MreB. For orientation: In gel filtration, larger molecules generally elute earlier.

Protein sequences, listed by entry. Tags and fused reporters are not part of them.
UniProt Q3YZ36: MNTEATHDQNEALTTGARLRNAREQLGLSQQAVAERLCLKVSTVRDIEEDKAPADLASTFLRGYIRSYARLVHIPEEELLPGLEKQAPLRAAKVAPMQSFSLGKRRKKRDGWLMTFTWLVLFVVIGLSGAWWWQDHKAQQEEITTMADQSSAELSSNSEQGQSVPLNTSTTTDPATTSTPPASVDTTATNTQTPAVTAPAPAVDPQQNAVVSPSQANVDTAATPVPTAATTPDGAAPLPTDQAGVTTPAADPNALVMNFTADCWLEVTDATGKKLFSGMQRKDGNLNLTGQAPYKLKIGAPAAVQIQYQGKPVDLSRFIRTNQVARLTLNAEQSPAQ

Results are given in words; binding and its absence hold for the method and conditions named. Some entries that bind do so weakly or less than the wild type.

Consider one substance from paper PMC7018016, “Superstructure formation by RodZ hexamers of Shigella sonnei maintains the rod shape of bacilli” (PLoS ONE, 2020).

On to “native RodZ in the cell lysate of S. sonnei MS390 (from UniProt Q3YZ36 1-337)”, for which the binding entry is listed as “binds”.
